Data as given in PubChem BioAssay AID1259254 (NCATS, 2017)
Test: 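Finding genes that stop cells copying their DNA twice in one cycle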 (primary screen). Cells: human HCT116 colorectal cancer cells. Reagent: single siRNA against human genes. Time to read-out: 3 days. Measurement: 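Nuclei stained with Hoechst and imaged; cell-cycle phase assigned by DNA content; G2 share scaled per plate, non-targeting siRNA 0%, GMNN siRNA 100%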. Scale: G2 robust z-score and G2 cells, % of GMNN control: higher = more G2 cells, more excess DNA replication; raw share of cells in G2: higher = larger share of cells with G2 DNA content. Hit rule: 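Active siRNAs have a G2 robust z of 5 or more median absolute deviations over the median, which in these data means about 38% or higher of GMNN control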.
The deposit covers about 59,000 reagents; shown is an unselected part. Of all reagents, about 1,550 (2.6%) got an active call. 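G2 share is only a proxy for re-replication; each gene was hit by three separate siRNAs, and active genes were retested.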 Raw values vary from plate to plate and are shown uncorrected. Entries without a mark were called inactive. The numbers tell different reagents against one gene apart. No sequences are given here. Not stated in the record: the amount of reagent.

| gene | reagent | G2 robust z-score | G2 cells, % of GMNN control | raw share of cells in G2 (%) |
| --- | --- | --- | --- | --- |
| BOC | 1 | 1.75 | 15.3 | 12.8 |
| BOC | 2 | -0.451 | -0.209 | 4.88 |
| BOC | 3 | -0.324 | 0.691 | 4.74 |
| CFLAR | 1 | 8.09 (active) | 59.9 | 26.4 |
| CFLAR | 2 | 2.34 | 19.5 | 11.8 |
| CFLAR | 3 | 0.0487 | 3.31 | 5.14 |
| ITM2A | 1 | 4.65 | 35.7 | 21.5 |
| ITM2A | 2 | 0.545 | 6.8 | 6.78 |
| ITM2A | 3 | 1.11 | 10.8 | 7.33 |
| ALG14 | 1 | 3.23 | 25.7 | 12.8 |
| ALG14 | 2 | 3.54 | 27.9 | 12.3 |
| ALG14 | 3 | -0.375 | 0.327 | 2.87 |
| MRGPRD | 1 | -0.0861 | 2.36 | 6.69 |
| MRGPRD | 2 | -1.04 | -4.33 | 3 |
| MRGPRD | 3 | 2.16 | 18.2 | 8.83 |
| NTHL1 | 1 | -0.448 | -0.184 | 3.14 |
| NTHL1 | 2 | 2.11 | 17.8 | 11.9 |
| NTHL1 | 3 | -0.212 | 1.47 | 5.35 |
| ST3GAL2 | 1 | -0.0222 | 2.81 | 5.51 |
| ST3GAL2 | 2 | 6.32 (active) | 47.4 | 21.6 |
| ST3GAL2 | 3 | 0.756 | 8.29 | 6.7 |
| PROM1 | 1 | -0.147 | 1.93 | 5.99 |
| PROM1 | 2 | 0.108 | 3.73 | 5.37 |
| PROM1 | 3 | -0.318 | 0.731 | 3.61 |
| SLC35B2 | 1 | 1.37 | 12.6 | 8.89 |
| SLC35B2 | 2 | 0.562 | 6.92 | 7.66 |
| SLC35B2 | 3 | -0.538 | -0.818 | 5.55 |
| RASIP1 | 1 | 0.469 | 6.27 | 5.85 |
| RASIP1 | 2 | 0.618 | 7.32 | 7.35 |
| RASIP1 | 3 | 0.633 | 7.42 | 5.65 |
| WDPCP | 1 | -0.636 | -1.51 | 3.28 |
| WDPCP | 2 | 2.2 | 18.5 | 11.5 |
| WDPCP | 3 | -0.751 | -2.32 | 2.52 |
| GPR146 | 1 | 0.535 | 6.73 | 5.33 |
| GPR146 | 2 | -1.24 | -5.75 | 3.79 |
| GPR146 | 3 | 6.94 (active) | 51.8 | 22.6 |
| RIPK1 | 1 | -0.575 | -1.08 | 5.25 |
| RIPK1 | 2 | -1.01 | -4.11 | 3.7 |
| RIPK1 | 3 | -0.784 | -2.55 | 2.87 |
| SAMTOR | 1 | -0.684 | -1.85 | 2.94 |
| SAMTOR | 2 | 2.64 | 21.6 | 10.2 |
| SAMTOR | 3 | -0.641 | -1.54 | 2.27 |
| COX7A2L | 1 | -0.476 | -0.384 | 4.57 |
| COX7A2L | 2 | -0.0707 | 2.47 | 6.13 |
| COX7A2L | 3 | -0.206 | 1.51 | 5.23 |
| MMP26 | 1 | 0.731 | 8.11 | 6.94 |
| MMP26 | 2 | 0.571 | 6.98 | 7.99 |
| MMP26 | 3 | 0.305 | 5.11 | 6.72 |
| CTSB | 1 | -0.407 | 0.104 | 5.6 |
| CTSB | 2 | -0.815 | -2.77 | 3.93 |
| CTSB | 3 | -0.708 | -2.01 | 3.16 |
| PRKAA2 | 1 | -0.694 | -1.91 | 4.98 |
| PRKAA2 | 2 | -0.923 | -3.53 | 4.22 |
| PRKAA2 | 3 | 3.06 | 24.5 | 12.7 |
| TMT1B | 1 | 0.13 | 3.88 | 7.81 |
| TMT1B | 2 | 0.264 | 4.83 | 6.47 |
| TMT1B | 3 | 2.69 | 21.9 | 13.9 |
| POMP | 1 | 1.26 | 11.8 | 7.83 |
| POMP | 2 | 0.423 | 5.95 | 6.78 |
| POMP | 3 | 3.98 | 30.9 | 13.4 |
| LIPH | 1 | -0.335 | 0.611 | 6.25 |
| LIPH | 2 | -0.277 | 1.02 | 5.13 |
| LIPH | 3 | 1.33 | 12.3 | 9.22 |
| ZP3 | 1 | 3.99 | 31.1 | 18.7 |
| ZP3 | 2 | 1.86 | 16 | 9.76 |
| ZP3 | 3 | 2.37 | 19.7 | 11.6 |
| CCDC126 | 1 | -0.318 | 0.732 | 3.16 |
| CCDC126 | 2 | -0.486 | -0.45 | 3.89 |
| CCDC126 | 3 | -0.052 | 2.6 | 3.82 |
